# Assay results published in PMC7819943, “Rice protein-binding microarrays: a tool to detect cis-acting elements near promoter regions in rice”.
# Amino acid sequences for entries named in this document (tags omitted).
# UniProt Q0JBA9, entry or part of it: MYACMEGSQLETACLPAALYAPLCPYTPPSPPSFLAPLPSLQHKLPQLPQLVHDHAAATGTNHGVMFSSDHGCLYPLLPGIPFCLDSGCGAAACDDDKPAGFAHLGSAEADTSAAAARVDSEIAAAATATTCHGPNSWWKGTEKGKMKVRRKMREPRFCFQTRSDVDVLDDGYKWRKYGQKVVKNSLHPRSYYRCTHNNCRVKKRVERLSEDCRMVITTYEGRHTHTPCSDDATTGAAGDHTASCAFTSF
# This is one part of the list.
# Target: OsWRKY34 (Oryza sativa, UniProt Q0JBA9 1-250)
# Experiment: protein-binding microarray (RPBM); PBS, 2% BSA, 51.3 ng/ul salmon testes DNA, 50 uM zinc acetate, 200 nM TF, 25 C, 1 h; high values mean tight binding
# Settings: protein: recombinant; tags: N-terminal polyhistidine and DsRed monomer fusion (pET32a); label: CyDye5-dUTP incorporated in the synthesized complementary strand; 3' TTTTT single-stranded linker to array surface; dsDNA, one strand shown
# Method in brief: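 Binding signal here means per-feature fluorescence intensity in arbitrary units. The values were read on an Axon 4000B scanner after a custom Agilent array, double-stranded by primer extension with Cy5-dUTP, was incubated with 200 nM protein at 25 °C for 1 h in PBS with 2% BSA, salmon testes DNA and 50 µM zinc acetate, then washed. The proteins were transcription factors with an N-terminal polyhistidine tag and DsRed, expressed in E. coli BL21-CodonPlus and purified on Ni–NTA.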
row,Sequence,binding signal
1,GTCTTTTCGGTTCGATCTTATTTTACCCACCCCTACTCGACGGAGTCACCTAGTGCAG,10300 fluorescence intensity (a.u.)
2,GAAGTAGGTGCTACACTCATTTTGCACTTTTGCGGTTCAACGGAGTCACCTAGTGCAG,8310 fluorescence intensity (a.u.)
3,CCATCGGCTGCACCTCTCTGCGCCTAGCCGGTCTCCGACCCGGAGTCACCTAGTGCAG,8050 fluorescence intensity (a.u.)
4,CCATCCACGCGACGCGGCACAACCTCCCGCGCCCAACACACGGAGTCACCTAGTGCAG,8760 fluorescence intensity (a.u.)
5,TCATCGTTGCTCAGTTAACCTTTGGTAGCTTCTTCTATTGCGGAGTCACCTAGTGCAG,8790 fluorescence intensity (a.u.)
6,TCCGAGCCGCTCGTTCCATTTCCATTCCTACGCCGAGGTCCGGAGTCACCTAGTGCAG,11000 fluorescence intensity (a.u.)
7,TCTTCAAGCCTGCAACAACCGCATCTACTTCCCACGTCATCGGAGTCACCTAGTGCAG,12000 fluorescence intensity (a.u.)
8,ATAATACAGATTTCTTTTCTTCTAATTAGTAGTATTATTACGGAGTCACCTAGTGCAG,8310 fluorescence intensity (a.u.)
9,ATGTCGGCCGTGTCGTCAGCTTGTCGCATATGCCAGATGCCGGAGTCACCTAGTGCAG,8030 fluorescence intensity (a.u.)
10,ATAATCATTCTTCTTCACCTACTTTCTCTTTTTAACCAATCGGAGTCACCTAGTGCAG,10100 fluorescence intensity (a.u.)
11,GCAGTATTTGTCACTTTTCCTGACCGACCACTTGCGTTTGCGGAGTCACCTAGTGCAG,10100 fluorescence intensity (a.u.)
12,ATTCGATTTTCTTGCACCTAAACACATGCAACCCATCATTCGGAGTCACCTAGTGCAG,10100 fluorescence intensity (a.u.)
13,GAACTCCCGCTTCTATCATCTCTTTCAAATTGATGTTCCACGGAGTCACCTAGTGCAG,10800 fluorescence intensity (a.u.)
14,CATGCGACAGCCTGTTTTGACTGCCTTTTGTTTTATATTGCGGAGTCACCTAGTGCAG,12000 fluorescence intensity (a.u.)
15,TGTGTGCGTGTGTTCCTCCTGTCAGTCACTTGCAAGCTGCCGGAGTCACCTAGTGCAG,8120 fluorescence intensity (a.u.)
16,GTTAATGTTTCTGGCTGCTGTCCTTCCGGCGACCCACCACCGGAGTCACCTAGTGCAG,9200 fluorescence intensity (a.u.)
17,GCTCGCACTTTTTCTATTCTATAATCTACGCTATCTGTTCCGGAGTCACCTAGTGCAG,8590 fluorescence intensity (a.u.)
18,CCCGACCTCGTCTTCAGCTCCGATCGCTCGCCGCGGCAGACGGAGTCACCTAGTGCAG,8590 fluorescence intensity (a.u.)
19,TTTCGATCCGTTGTCCTCAATAAACCAACTTTTGTATTTTCGGAGTCACCTAGTGCAG,10800 fluorescence intensity (a.u.)
20,CCGCTCGCTCGCCGCCGCCGCCGCGTCGTCGTCGTCTCCGCGGAGTCACCTAGTGCAG,8950 fluorescence intensity (a.u.)
21,GGAAGCGGGCGCGGGCGGGGCAGGGGCAGCAGGCGGCGGTCGGAGTCACCTAGTGCAG,8280 fluorescence intensity (a.u.)

# Shown tab-delimited: part of the list above
row	Sequence	binding signal
14	CATGCGACAGCCTGTTTTGACTGCCTTTTGTTTTATATTGCGGAGTCACCTAGTGCAG	12000 fluorescence intensity (a.u.)
15	TGTGTGCGTGTGTTCCTCCTGTCAGTCACTTGCAAGCTGCCGGAGTCACCTAGTGCAG	8120 fluorescence intensity (a.u.)

# Carrying on:

row,Sequence,binding signal
1,TTGTTTGCAACGTTTGACCGCTCATCTTATTCAATTTTTTCGGAGTCACCTAGTGCAG,9070 fluorescence intensity (a.u.)
2,TACGGGGCGGCTGATGCTTCTACTCCATATTAACTATTCCCGGAGTCACCTAGTGCAG,10200 fluorescence intensity (a.u.)
3,CTGCTGCATTTACACGCCATTTTTTTTCCGCTCTTCTTTTCGGAGTCACCTAGTGCAG,12800 fluorescence intensity (a.u.)
4,CATCCTTTTTTCTAGTCCACAAACGCTAGCTTCGCCCGCCCGGAGTCACCTAGTGCAG,9950 fluorescence intensity (a.u.)
5,TCCAACCTCTTAGTTTCCTGCTTGGTTTTGATCGATTCAACGGAGTCACCTAGTGCAG,9880 fluorescence intensity (a.u.)
6,GGCTTCAGTTTTCTCTGCCCACCGATGATCGGTCCATCCGCGGAGTCACCTAGTGCAG,8830 fluorescence intensity (a.u.)
7,TGCCACGTCATCACCCTTTATTTACCATCTTCTCTCCCTTCGGAGTCACCTAGTGCAG,11000 fluorescence intensity (a.u.)
8,TGCAGTCGTAAGCCCTCATATTACGTTTATCAGCCTTCTGCGGAGTCACCTAGTGCAG,8330 fluorescence intensity (a.u.)
9,TCAGATTCTGCACCCTTCTCGAACGAAACAATATCACCGCCGGAGTCACCTAGTGCAG,8140 fluorescence intensity (a.u.)
10,CATATGACATTATTACTATGGTTCTTTGTTATAGTCCACTCGGAGTCACCTAGTGCAG,10400 fluorescence intensity (a.u.)
11,CGTGCCCGACTCCACACACCACTCCACCGCATCGCACTCGCGGAGTCACCTAGTGCAG,8680 fluorescence intensity (a.u.)
12,CACTGATTTTGATAGTTGAGGGACCCGTTGTATTTGATTTCGGAGTCACCTAGTGCAG,8120 fluorescence intensity (a.u.)
13,GTTATCTCTGGTAATTAGTTTCTTGTCTTCATCTACTCCTCGGAGTCACCTAGTGCAG,9590 fluorescence intensity (a.u.)
14,TCATCGAGGACCGTCATTTGTTTCGTCAATCTTGGTATCCCGGAGTCACCTAGTGCAG,9860 fluorescence intensity (a.u.)
15,AGCAGCTGCCCCGAGTCGCCAGGTACATGAACATTTTACACGGAGTCACCTAGTGCAG,8090 fluorescence intensity (a.u.)
16,TACCTTTTCCTGCAAATGTTACTTCTCCTTCATCCTTTGCCGGAGTCACCTAGTGCAG,10700 fluorescence intensity (a.u.)
17,TACCGGCAGCTGCCTCTGACTCGTCTCCTCGTTGCTCCTCCGGAGTCACCTAGTGCAG,9240 fluorescence intensity (a.u.)
18,CACTACTTATCCAATCACAACCCTACATCACTCACTTCTACGGAGTCACCTAGTGCAG,11600 fluorescence intensity (a.u.)
19,CGCTTTTATCGCCGCCGCCGCCGCCGCCGCCTCCGCCGCCCGGAGTCACCTAGTGCAG,8800 fluorescence intensity (a.u.)
20,GCTTGGGGTGGAATCGCGTGGACAGCGTGGGCCTCAGTCACGGAGTCACCTAGTGCAG,12000 fluorescence intensity (a.u.)
21,GCATTTCAAATTTCGAATTCCCAAACCTATCCATTCCAAACGGAGTCACCTAGTGCAG,9310 fluorescence intensity (a.u.)

row,Sequence,binding signal
1,AAGATGATTCAGGCATTGATCTTCCCTACTCTACTATGTCCGGAGTCACCTAGTGCAG,8760 fluorescence intensity (a.u.)
2,ACTTTCCGTTCAGAACCTGGCACCGTCTCTCTCTTCTTTCCGGAGTCACCTAGTGCAG,8570 fluorescence intensity (a.u.)
3,AGCCAGGTCTCTTCGTTTTTCTTCGCGTTGATTTTTTTTTCGGAGTCACCTAGTGCAG,13800 fluorescence intensity (a.u.)
4,CCGTTCATAACACCCATGGCTTTGGCACCACACGACACAACGGAGTCACCTAGTGCAG,8550 fluorescence intensity (a.u.)
5,GACGGCGACCGAAGGGGACAAGGAGGCGGGGCGGGGCGGCCGGAGTCACCTAGTGCAG,14000 fluorescence intensity (a.u.)
6,CGATCTGCTTACACGGCATATTCTTACTGGATGGTGTACACGGAGTCACCTAGTGCAG,8720 fluorescence intensity (a.u.)
7,ATTGGAGTTAGTGGTGGGCTATACTATTAGACGTCCATTGCGGAGTCACCTAGTGCAG,8520 fluorescence intensity (a.u.)
8,CGAGGAACACACACACCCCTACCCGTCTCTGTTCATCTCCCGGAGTCACCTAGTGCAG,10900 fluorescence intensity (a.u.)
9,CACCGAGAGCTCTCCCGCTCCACTCGCCGCACACCACCACCGGAGTCACCTAGTGCAG,10500 fluorescence intensity (a.u.)
10,TTCGTGTGGAGGCCCACGCTATCCTGCGATTCCACCATATCGGAGTCACCTAGTGCAG,8390 fluorescence intensity (a.u.)
11,TTTTCTTAGCGGTTTTATTGTTTCTAACCAAGTTATAATTCGGAGTCACCTAGTGCAG,8180 fluorescence intensity (a.u.)
12,AAAGTTCAAATAATATTTGCAACTTTTTTCATGATCGTTTCGGAGTCACCTAGTGCAG,8860 fluorescence intensity (a.u.)
13,TTTTTTACCCTGTCAAAAACGTACATGATGCTTTTCACTGCGGAGTCACCTAGTGCAG,8170 fluorescence intensity (a.u.)
14,AACATCATCTTTGCCTCTTTTGGACCATCATGACACTTATCGGAGTCACCTAGTGCAG,11800 fluorescence intensity (a.u.)
15,ATATCATTCTCTCTCTCTCGTATCCCTTCTCTCTTTCCCCCGGAGTCACCTAGTGCAG,9350 fluorescence intensity (a.u.)
16,AACACCGCCGTCTCCGTGGCCACCGCCGCCGCCGCCGCTCCGGAGTCACCTAGTGCAG,12400 fluorescence intensity (a.u.)
17,TTTCATGTCAATAAAGCTAATGGCCTGTTCACTTTGATGCCGGAGTCACCTAGTGCAG,8440 fluorescence intensity (a.u.)
18,AAACCCTTTTTCCCAACCCATCTCCCTCATTTTTCGCGCGCGGAGTCACCTAGTGCAG,11300 fluorescence intensity (a.u.)
19,AAATGTCAAGTTGCATCACATCGTCGTCATTGACACTATTCGGAGTCACCTAGTGCAG,8670 fluorescence intensity (a.u.)
20,CACAATAGACCACCCGAAACCACATCTTCAACACTTCAATCGGAGTCACCTAGTGCAG,8530 fluorescence intensity (a.u.)
21,TTTCTCACATGTTTGACCGTTTGTCTTATTTAAAAAATTTCGGAGTCACCTAGTGCAG,8770 fluorescence intensity (a.u.)

row,Sequence,binding signal
1,AGTCTGGATTCTTGGAGGTCAACTTTGGTCAACGGTGGGGCGGAGTCACCTAGTGCAG,14200 fluorescence intensity (a.u.)
2,TGAGCTTCACGTAGATCTCATCGTCGTTGTCCACCACGTCCGGAGTCACCTAGTGCAG,8650 fluorescence intensity (a.u.)
3,GGCCACCATGAGCTCTCCTTTCTTTGTTCTTCTCTTCTGACGGAGTCACCTAGTGCAG,10300 fluorescence intensity (a.u.)
4,TTTGTTTCTTGTTCTAGAGGGTTTCCTAAGGTGTTTAGGACGGAGTCACCTAGTGCAG,9940 fluorescence intensity (a.u.)
5,GACGTGGTGTTGGGCTAGTTATTTCTTCCAGGGGTACAATCGGAGTCACCTAGTGCAG,12600 fluorescence intensity (a.u.)
6,GCTTCGGCTTCGGCGACCCTACCACCAACATCATCGCCAACGGAGTCACCTAGTGCAG,8690 fluorescence intensity (a.u.)
7,CCGGGACTGCTTCGCCGCCTCCGTGATCACCCTGTTCGCCCGGAGTCACCTAGTGCAG,8070 fluorescence intensity (a.u.)
8,GGATCGCGTGGTTTGTGTCGTGTCTTTGCATACGGCGACACGGAGTCACCTAGTGCAG,8300 fluorescence intensity (a.u.)
9,GGTGTGAAGTGCGATTCTGTTAAGTAGTTTGTTACCCGGCCGGAGTCACCTAGTGCAG,8290 fluorescence intensity (a.u.)
10,GTTTCACAATCCTCTGTTTTACAATTGTATTCCTGCCAGACGGAGTCACCTAGTGCAG,9040 fluorescence intensity (a.u.)
11,CCCTTCTTTTTCTTCCTTTCTCAACCACACACAGCAGTACCGGAGTCACCTAGTGCAG,9370 fluorescence intensity (a.u.)
12,CATCTCAAGTTAGCATGCGAGTTTTTTTTTAAAGTATTTCCGGAGTCACCTAGTGCAG,9710 fluorescence intensity (a.u.)
13,GTCACTACACGTTAAGTGTCACCTTCCACTCGGAACTACTCGGAGTCACCTAGTGCAG,8520 fluorescence intensity (a.u.)
14,GGTTGCTTGGATACCAACATTTATCATACTTTTTTTGAATCGGAGTCACCTAGTGCAG,9280 fluorescence intensity (a.u.)
15,GCCACTGGACGCCAACTTTGTCTCCAGCTATTTGACCAGGCGGAGTCACCTAGTGCAG,9000 fluorescence intensity (a.u.)
16,GGCAATTCCTGTGTTTTTCCTGTGTTTTATAAAACTCTGACGGAGTCACCTAGTGCAG,8560 fluorescence intensity (a.u.)
17,CTATGTGTACTAACATTTTTTTTACTTTTTCATAAATTTACGGAGTCACCTAGTGCAG,8370 fluorescence intensity (a.u.)
18,AGACTTTGGCTAACAGGCGTTTTCCTAATTACTGCTACAGCGGAGTCACCTAGTGCAG,8130 fluorescence intensity (a.u.)
19,GTTGTGAGGAAAGGCGTATTTTCGTGAATCCCGTGTTTATCGGAGTCACCTAGTGCAG,8250 fluorescence intensity (a.u.)
20,TTCTTGACGACGCAAACGTGCTTGAGCTTTCACCAACCCGCGGAGTCACCTAGTGCAG,8340 fluorescence intensity (a.u.)
21,CCCATGTCTGCTTAACTTTTTATGCATAGTTTTCTTTGAACGGAGTCACCTAGTGCAG,10800 fluorescence intensity (a.u.)

# 4 entries picked at random from those above:
row,Sequence,binding signal
6,GGCTTCAGTTTTCTCTGCCCACCGATGATCGGTCCATCCGCGGAGTCACCTAGTGCAG,8830 fluorescence intensity (a.u.)
10,CATATGACATTATTACTATGGTTCTTTGTTATAGTCCACTCGGAGTCACCTAGTGCAG,10400 fluorescence intensity (a.u.)
20,CCGCTCGCTCGCCGCCGCCGCCGCGTCGTCGTCGTCTCCGCGGAGTCACCTAGTGCAG,8950 fluorescence intensity (a.u.)
21,CCCATGTCTGCTTAACTTTTTATGCATAGTTTTCTTTGAACGGAGTCACCTAGTGCAG,10800 fluorescence intensity (a.u.)
